Structures are written as SMILES. Some of the results follow. These are further read-outs of the screen, such as a control signal, another cell line or another target. No call is given for them. For part of these data: Most of these compounds were active or inconclusive in the main read-out, so they are no random draw. Potencies come from curve fits of mixed quality, noted in brackets.

Amino acid sequences for entries named in this document (tags omitted). A change or cut given only in a name is not applied to a line headed by its entry.
UniProt P50135: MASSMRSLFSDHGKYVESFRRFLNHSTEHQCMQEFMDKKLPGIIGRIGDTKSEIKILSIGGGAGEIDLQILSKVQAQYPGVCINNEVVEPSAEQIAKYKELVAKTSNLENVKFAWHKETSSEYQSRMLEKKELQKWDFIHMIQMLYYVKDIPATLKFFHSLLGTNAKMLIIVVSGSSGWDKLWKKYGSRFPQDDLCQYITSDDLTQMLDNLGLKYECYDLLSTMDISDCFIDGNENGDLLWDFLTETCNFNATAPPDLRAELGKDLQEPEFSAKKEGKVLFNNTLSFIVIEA
UniProt P11086: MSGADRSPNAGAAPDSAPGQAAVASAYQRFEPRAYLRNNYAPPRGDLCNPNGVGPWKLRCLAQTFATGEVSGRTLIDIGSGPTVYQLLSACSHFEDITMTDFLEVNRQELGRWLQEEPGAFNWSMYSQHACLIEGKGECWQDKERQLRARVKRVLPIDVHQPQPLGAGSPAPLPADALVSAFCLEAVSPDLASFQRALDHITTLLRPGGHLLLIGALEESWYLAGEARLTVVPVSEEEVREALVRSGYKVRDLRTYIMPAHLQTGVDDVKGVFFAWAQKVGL

Test [1] is described as follows: Validation of Assay for Modulators of Lamin A Splicing (AID 1459). The settings on record: Lamin A splicing dual RFP/GFP fluorescence reporter, ratio. The method in brief: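 Splicing correction is reported by an EGFP-containing lamin A minigene in stably transfected S3 HeLa cells, while DsRed2 controls for viability and nonspecific signal. Cells are exposed to compounds for 48 hrs before the GFP over RFP ratio is taken.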

The nature of test [2]: qHTS Assay for Lipid Storage Modulators (AID 1519). The settings on record: Drosophila S3 cells, BODIPY lipid droplet/cell ratio, laser cytometry, cells loaded with oleic acid. The method in brief:
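Cells seeded at 5,000 per well were treated with compounds over a concentration series and loaded with oleic acid (400 uM, as added). Lipid droplet fluorescence (488 nm excitation, 500-530 nm channel) was read by laser-scanning cytometry and normalized to 20 uM Triacsin C.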
(In general: qHTS replaces the single test concentration by a dilution series.)

The nature of test [3]: qHTS Assay for Modulators of Human Peripheral Myelin Protein 22 (PMP22) Expression/Activity (AID 1967). The settings on record: Cell-based PMP22 reporter, dual-color luciferase ratio. The method in brief: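 Quantitative HTS in a mouse Schwann cell line expressing dual click beetle luciferases: Pmp22 promoter (green) and control EF-alpha promoter (red). After 24h treatment, corrected green/red signal ratio gave %Activity relative to untreated cells.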

Test [4] addresses Histamine N-methyltransferase (Homo sapiens) (UniProt P50135). Nature of the test: Confirmatory Screen for Target Class Profiling of Small Molecule Inhibitors of Methyltransferases (AID 1745852). The settings on record: MTase-Glo luminescence, SAH detection, recombinant enzyme; measured here: HNMT inhibition potency.
Test [5] has as its target Phenylethanolamine N-methyltransferase (Homo sapiens) (UniProt P11086). The description is as above. The settings on record: MTase-Glo luminescence, SAH detection, recombinant enzyme; measured here: PNMT inhibition potency.
The nature of test [6]: qHTS Validation Assay to Find Inhibitors of Chronic Active B-Cell Receptor Signaling (AID 485345). The settings on record: ABC-DLBCL cells, chronic BCR signaling reporter. The method in brief: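 TMD8 ABC-DLBCL cells with dox-inducible green luciferase–IκBα fusion and red native luciferase; compounds 46 uM–3 nM, 4 h at 37C with doxycycline in 0.5% FBS IMDM. Green/red ratio normalized to basal and 10 uM MG-132.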

Test [7] can be described thus: Nrf2 qHTS screen for inhibitors: Validation (AID 493153). The settings on record: A549 ARE-Fluc reporter, 18-24 h; AC50: CellTiter-Fluor fluorescence read, measured here: cytotoxicity CellTiter-Fluor AC50; viability change: measured here: cytotoxicity max response. Summed up: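 Concentration-response test in A549 ARE_Fluc reporter cells (5% FBS OPTI-MEM), compound exposure 18-24 h at 37°C, 5% CO2. Cell viability measured first by CellTiter-Fluor fluorescence; ARE-driven luciferase luminescence then measured as Nrf2 activity.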

The nature of test [8]: A High-Content qHTS Against Drug Library for the Identification of Small Molecules that Inhibit DYT1 Early Onset Primary Dystonia-Associated Cell Pathology (AID 1645839). The settings on record: HEK293 Flp-In EGFP-delE TorsinA, punctate imaging, 48 h; measured here: cell count cytotoxicity. The method in brief:
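Induced EGFP-delE TorsinA cells are imaged after 48 h of compound treatment. Punctate fusion-protein distribution gives the %pathology value, while nuclei counts flag toxicity. Wild-type EGFP-hTOR1A cells define the normal pattern.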

Test [9] in a line: NCATS anti-infectives library activity on the primary C. elegans qHTS viability assay (AID 1745855). The settings on record: C. elegans worm area imaging, day 7; measured here: worm number, day 3. The method in brief:
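Titration-based screen in worms: eggs hatched overnight in M9, L1 larvae fed TOP10 capsules in S medium with compound, incubated 21 °C for 7 days; fluorescent objects gated by size and intensity at days 0, 3 and 7.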

The nature of test [10]: qHTS drug screen for cell cycle checkpoint inhibitors in PARPi-resistant BRCA-mutant ovarian cancer cell lines. (AID 1963452). The settings on record: PEO1/OlaR viability, CellTiter-Glo luminescence, 96 h. Summed up: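 PEO1, PEO4 and PEO1/OlaR ovarian cancer cells, 600 per well, exposed 96 h at 37C to a dilution series. Viability read by CellTiter-Glo luminescence, normalized to DMSO and empty wells; activity summarized as Z-AUC.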

The nature of test [11]: qHTS for identification of novel therapeutic agents for treatment of microphthalmiaassociated transcription factor (MiT) renal cell carcinoma (RCC) (AID 1963991). The settings on record: CellTiter-Glo, 48 h; for z-score: stronger effect = lower value. The method in brief:
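Viability of three TFE3-fusion renal carcinoma lines measured by CellTiter-Glo after 48 h treatment with each of 1912 compounds at 11 concentrations. Responses scaled between DMSO (100%) and empty wells (0%) before curve fitting.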

Setting [12] is: measured here: cell count channel max response.
The mark [13] stands for this setting: measured here: lipid channel max response.
Where [14] appears, read: measured here: cell number channel AC50.
Where [15] appears, read: measured here: lipid (BODIPY) channel AC50.
Where [16] appears, read: measured here: red reporter channel AC50, EF-alpha promoter control reporter in MSC80 mouse Schwann cells.

As to `O=C1CCC(c2ccc(-n3ccnc3)cc2)=NN1`, the AC50 (in general, the midpoint of the concentration-response curve, whichever way the signal moves) in test [1] (measured here: GFP channel) was 3.16 µM [rising, full curve]; in test [1] (measured here: RFP channel), 3.55 µM [rising, partial curve]. Besides, the max response came to 39.4% in test [2] (setting [12]) and 45.5% in test [2] (setting [13]).
For the compound `CCCCOc1cc(CC2CNC(=O)N2)ccc1OC` (centres undefined), the AC50 is 15.8 µM [rising, partial curve] in [1] (measured here: GFP channel); 22.4 µM [rising, single point] in test [1] (measured here: RFP channel); 39.8 µM [rising, single point] in test [2] (setting [14]); 39.8 µM [rising, single point] in test [2] (setting [15]). Moreover, the max response in [2] (setting [12]) amounted to 73.4%; in test [2] (setting [13]) it was 76.4%.
As to `NCC(O)C1CCCCCCC1` (centres undefined), the AC50 is 1.58 µM [falling, full curve, poor fit] in test [1] (measured here: GFP channel); 1.58 µM [falling, full curve, poor fit] in [1] (measured here: RFP channel); 1.58 µM [falling, full curve] in [2] (setting [14]); 1.58 µM [falling, full curve] in test [2] (setting [15]); 47.8 µM [falling, partial curve] in test [3] (setting [16]). The max response in [2] (setting [12]) was 26.3%; in test [2] (setting [13]), 27.6%. In addition, the IC50 (as a rule, the concentration at which inhibition is half-maximal) in test [4] was 19.3 µM [falling, partial curve]; in [5], 13.7 µM [falling, partial curve].
For the compound `CN1CCN(CCCN2c3ccccc3Sc3ccc(C(F)(F)F)cc32)CC1`, the AC50 was 35.5 µM [falling, single point] in [1] (measured here: GFP channel); 35.5 µM [falling, single point] in [1] (measured here: RFP channel); 31.6 µM [falling, partial curve, poor fit] in test [2] (setting [14]); 35.5 µM [falling, partial curve, poor fit] in [2] (setting [15]); 30.1 µM [falling, full curve] in [3] (measured here: green reporter channel AC50, mouse Pmp22 promoter in mouse Schwann cells); 23.9 µM [falling, full curve] in test [3] (setting [16]). For the same compound, the AC50 in [6] (measured here: CBG/CBR ratio read-out) was 18.4 µM [falling, single point]; in test [6] (measured here: CBR control luciferase (viability counter)), 9.2 µM [falling, partial curve]; in [7], 20.6 µM [falling, partial curve, poor fit]; in [8], 7.94 µM [falling, partial curve]; in test [9], 25.8 µM [falling, single point]; in test [10] (measured here: PEO1 parental viability), 15.5 µM [falling, single point]. Further, the AC50 was 13.8 µM [falling, partial curve] in test [10] (measured here: PEO4 viability) and 5.9 µM [falling, full curve] in test [11] (TFE3-RCC viability, measured here: UOK145 cell viability). The figures for the max response in test [2] (setting [12]) and in test [2] (setting [13]) were -90.5% and -96.6%, respectively. Moreover, the viability change in [7] is -27.7%. Further, the z-score was -1.75 in test [11] (TFE3-RCC UOK109 viability, measured here: UOK109 Z-AUC); 0.0577 in test [11] (TFE3-RCC viability, measured here: UOK124 Z-AUC); -0.411 in [11] (TFE3-RCC viability, measured here: UOK145 Z-AUC).

(Values after PubChem BioAssay (NCATS).)
